We go through five molecules from US11724980B2, “Quinones having high capacity retention for use as electrolytes in aqueous redox flow batteries” (President and Fellows of Harvard College, priority 2018, dated 2023).

Molecules are shown by their SMILES.

Data set [1] can be described thus: Full cell cycling against potassium ferro/ferricyanide posolyte. The note with it: for Cell Voltage: OCV at 50% SOC from full-cell tests, potassium ferrocyanide-based posolyte. How it is done:
Full cell cycling (i.e. with a ferro/ferricyanide-based posolyte) was performed with the same flow cell hardware but with a FUMASEP® E-620(K) membrane due to its high conductivity and low permeability of DBEAQ and ferricyanide compared to other membranes. For studies at pH 14, the posolyte volume was 30 mL, and its composition, when assembled, was 0.20 M potassium ferrocyanide, 0.08 M potassium ferricyanide, and 1 M KOH. The negolyte was prepared by dissolving 0.1 M 2,6-DBEAQ in its oxidized form in 1.2 M KOH solution, resulting in 0.1 M 2,6-DBEAQ, 1.2 M K+, and 1 M OH^− electrolyte solution. For studies at pH 12, both electrolytes comprised 10 mM OH^−; the pH was checked both with a pH meter and pH paper and adjusted where necessary. For all full cell studies, the negolyte was assembled in the fully discharged state. Galvanostatic cycling was performed at ±0.1 A/cm^2 at room temperature, with voltage limits of 0.6 and 1.4 V. To obtain the polarization curves, the cell was first charged to the desired state of charge and then polarized via linear sweep voltammetry at a rate of 100 mV/s. […] Electrochemical impedance spectroscopy (EIS) was performed at SOCs between 10 and 100% at open-circuit potential with a 10 mV perturbation and with frequency ranging from 1 to 300,000 Hz.
In order to avoid temporal variations in accessible capacity during full cell cycling caused by changes in membrane resistance^8, each galvanostatic half-cycle was finished with a potential hold at the potential limit (1.4 V after charge, 0.6 V after discharge), until the magnitude of the current density fell below 2 mA/cm^2. Over a 5-day test period, a capacity fade rate of 0.05%/day or 0.001%/cycle was observed (FIG. 21A). […] It has been shown that capacity retention rates using both cycling protocols yield virtually identical results.^8
A flow battery was constructed using a solution of 2,6-DBEAQ produced as described in Example 1. Cell hardware from Fuel Cell Tech. (Albuquerque, N. Mex.) was used to assemble a zero-gap flow cell configuration, similar to a previous report (supplemental information in the paper by K. Lin et al. Science 349, 1529 (2015)). Pyrosealed POCO graphite flow plates with serpentine flow patterns were used for both electrodes. […] A sheet of pretreated NAFION® 212 membrane served as the ion-selective membrane between the carbon electrodes. Pretreatment of the NAFION® 212 membrane was performed by first heating it at 80° C. in de-ionized water for 20 minutes and then soaking in 5% hydrogen peroxide solution at room temperature for 35 minutes. These pre-treated membranes were stored in 0.1 M KOH solution at room temperature. The outer portion of the space between the electrodes was gasketed by Teflon sheets with the area over the electrodes cut out. Torque applied during cell assembly was 90 lb-in on each of 8 bolts. The electrolytes were fed into the cell through PFA tubing, at a rate <60 ml/min controlled by Cole-Parmer Micropump gear pumps. The cell was run inside a nitrogen-filled glove box with an O2 partial pressure of about 1 to 2 ppm. Cell polarization measurements, impedance spectroscopy, and charge-discharge cycling were performed using a Biologic VSP 300 potentiostat. The posolyte volume and composition when assembled was 30 mL of 0.22 M potassium ferrocyanide, 0.02 M potassium ferricyanide and 1 M KOH. The capacity-limiting negolyte was prepared by dissolving 1.2 mmoles of 2,6-DBEAQ (0.5 g) in its oxidized form in 1.2 M KOH solution (6 mL) resulting a 0.2 molar 2,6-DBEAQ solution.
For a full cell study, the electrolytes were assembled in the fully discharged state, deaerated and brought into a nitrogen-filled glovebox. The oxygen level was maintained at <2 ppm during cycling. Galvanostatic cycling was performed at ±0.1 A/cm^2 at room temperature, with voltage limits of 0.6 and 1.4 V, controlled by a Gamry 30K Booster potentiostat.
The pH of both sides was adjusted to 9 by adding a trace of KOH.

A short description of data set [2]: Cyclic voltammetry on glassy carbon electrode. Type of data set: physicochemical. Conditions: difference in CV-obtained redox potentials between DBEAQ and potassium ferri/ferrocyanide. How it is done: Glassy carbon was used as the working electrode for all three-electrode CV tests. RDE experiments were conducted using a Pine Instruments Modulated Speed Rotator AFMSRCE equipped with a 5 mm diameter glassy carbon working electrode, a Ag/AgCl reference electrode (BASi, pre-soaked in 3 M NaCl solution), and a graphite counter electrode. The electrode was rotated at a specific speed while the voltage was linearly swept from −0.4 to −0.11 V vs. Ag/AgCl (FIG. 4A). […].
A second CV experiment was performed in which 2,6-DBEAQ was dissolved in pH 14 KOH solution at a concentration of 2 mM. CV measurements were plotted in FIG. 4C. The standard equilibrium potential was determined to be −0.49 V vs. SHE. The separation between the peaks in the CV curves was 42 mV, indicating fairly rapid and reversible electrochemical reactions at the surface of the electrodes.

In the case of `O=C1c2ccc(O)cc2C(=O)c2ccc(O)cc21` [2,6-DHAQ, 2,6-dihydroxyanthraquinone], the “Cell Voltage” value in data set [1] came out at 1.20 V.

For the molecule `O=C1c2ccc(OCCCP(=O)(O)O)cc2C(=O)c2ccc(OCCCP(=O)(O)O)cc21` [DPPEAQ, (((9,10-dioxo-9,10-dihydroanthracene-2,6-diyl)bis(oxy))bis(propane-3,1-diyl))bis(phosphonic acid)], in data set [1] (0.1 M in 1 M KCl, pH 9, 16 cycles (9.5 hours)), the discharge capacity fade result is on record as “did not fade”. In addition, the “current efficiency after the first cycle” value in data set [1] (0.1 M in 1 M KCl, pH 9, ±20 mA/cm^2, 16 cycles) is recorded as “exceeded 99%”. In data set [1] (0.5 M, pH 9, 10% SOC), this molecule returned an open-circuit potential of 0.95 V and a peak power density of 0.073 W cm^−. Also, the OCV result in data set [1] (0.5 M, pH 9, 50% SOC) is “approximately 1.02 V”. For the same molecule, in data set [1] (0.5 M, pH 9, 90% SOC), the open-circuit potential came to 1.05 V and the peak power density stood at 0.160 W cm^−. In addition, in data set [1] (0.5 M, pH 9, 480 cycles), the “average Coulombic efficiency” value was “greater than 99%” and the capacity fade rate is 0.00036 %/cycle. The same molecule gave an average capacity retention in data set [1] (0.5 M, pH 9, 480 cycles, 12.3 days, 100 mA cm^−2) of 100 %/cycle. The molecule also came in with a capacity fade rate in data set [1] (0.5 M, pH 9, 12.3 days) of 0.014 %/day.

In data set [1] (0.1 M negolyte, pH 14, 4-day galvanostatic cycling), `O=C([O-])CCCOc1ccc2c(c1)C(=O)c1ccc(OCCCC(=O)[O-])cc1C2=O.[K+].[K+]` [2,6-DBEAQ, 4,4′-((9,10-anthraquinone-2,6-diyl)dioxy)dibutyric acid] returned a current efficiency of around 99.94%. The molecule further returned an open-circuit voltage in data set [1] (0.2 molar negolyte, 1 M KOH, NAFION® 212, 50% state of charge) of 1.02 V. Further, the “open-circuit voltage (OCV)” value in data set [1] (0.5 M, pH 12, 10% SOC) turned out to be 0.97 V; in data set [1] (0.5 M, pH 12, 50% SOC) it was 1.05 V; in data set [1] (0.5 M, pH 12, 100% SOC), 1.12 V. In addition, the “peak galvanic power density” value in data set [1] (0.5 M, pH 12, 100% SOC) was determined as 0.24 W/cm^2. Besides, the “total loss over testing period” value in data set [1] (6-day testing period, full cell) is given as below 0.5%. Further, the “Cell Voltage” value in data set [1] is reported as 1.05 V. Further, the capacity fade rate in data set [1] (parallel test, potentiostatic cycle after every 20 galvanostatic cycles) is 0.04 %/day.

For `O=C(O)CCCOc1ccc2c(c1OCCCC(=O)O)C(=O)c1ccccc1C2=O` [1,2-DBEAQ], in data set [2], the “Cell Voltage” value was 1.04 V.

For `O=C(O)CCCOc1cccc2c1C(=O)c1c(OCCCC(=O)O)cccc1C2=O` [1,8-DBEAQ], the “Cell Voltage” value in data set [2] worked out at 1.01 V.
